The record followed here is US20160101154A1.

Chains of the proteins cited; added tags and fusions are not shown. Lines headed by an entry give the natural chain unless they say otherwise; changes in a name come on top.
UniProt P06756: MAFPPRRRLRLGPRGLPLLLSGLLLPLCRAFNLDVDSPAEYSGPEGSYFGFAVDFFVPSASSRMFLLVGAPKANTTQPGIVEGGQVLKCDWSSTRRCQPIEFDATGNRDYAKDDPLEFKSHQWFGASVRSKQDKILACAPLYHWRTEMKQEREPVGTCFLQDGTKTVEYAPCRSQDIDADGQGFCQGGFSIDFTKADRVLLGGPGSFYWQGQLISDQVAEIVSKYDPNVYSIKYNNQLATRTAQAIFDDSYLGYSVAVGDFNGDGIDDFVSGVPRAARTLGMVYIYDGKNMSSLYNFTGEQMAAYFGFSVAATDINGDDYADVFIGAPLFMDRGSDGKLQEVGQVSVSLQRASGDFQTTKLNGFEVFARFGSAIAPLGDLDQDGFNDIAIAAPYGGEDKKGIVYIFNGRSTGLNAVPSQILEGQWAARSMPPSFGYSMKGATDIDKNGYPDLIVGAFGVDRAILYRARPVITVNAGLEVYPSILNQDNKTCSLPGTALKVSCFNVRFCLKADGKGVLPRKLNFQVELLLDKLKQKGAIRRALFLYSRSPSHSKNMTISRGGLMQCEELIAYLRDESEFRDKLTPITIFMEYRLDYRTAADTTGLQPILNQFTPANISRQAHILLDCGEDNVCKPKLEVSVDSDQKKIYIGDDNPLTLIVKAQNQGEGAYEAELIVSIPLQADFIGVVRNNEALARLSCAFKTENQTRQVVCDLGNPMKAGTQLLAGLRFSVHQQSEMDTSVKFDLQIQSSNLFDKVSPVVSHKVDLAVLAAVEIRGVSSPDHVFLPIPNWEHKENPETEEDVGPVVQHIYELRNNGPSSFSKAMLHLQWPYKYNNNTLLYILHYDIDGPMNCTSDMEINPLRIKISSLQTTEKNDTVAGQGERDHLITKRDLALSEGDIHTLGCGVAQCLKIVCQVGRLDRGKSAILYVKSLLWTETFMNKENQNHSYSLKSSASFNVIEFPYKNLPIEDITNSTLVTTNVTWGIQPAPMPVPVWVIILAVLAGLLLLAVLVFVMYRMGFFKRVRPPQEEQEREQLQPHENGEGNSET
UniProt O15123: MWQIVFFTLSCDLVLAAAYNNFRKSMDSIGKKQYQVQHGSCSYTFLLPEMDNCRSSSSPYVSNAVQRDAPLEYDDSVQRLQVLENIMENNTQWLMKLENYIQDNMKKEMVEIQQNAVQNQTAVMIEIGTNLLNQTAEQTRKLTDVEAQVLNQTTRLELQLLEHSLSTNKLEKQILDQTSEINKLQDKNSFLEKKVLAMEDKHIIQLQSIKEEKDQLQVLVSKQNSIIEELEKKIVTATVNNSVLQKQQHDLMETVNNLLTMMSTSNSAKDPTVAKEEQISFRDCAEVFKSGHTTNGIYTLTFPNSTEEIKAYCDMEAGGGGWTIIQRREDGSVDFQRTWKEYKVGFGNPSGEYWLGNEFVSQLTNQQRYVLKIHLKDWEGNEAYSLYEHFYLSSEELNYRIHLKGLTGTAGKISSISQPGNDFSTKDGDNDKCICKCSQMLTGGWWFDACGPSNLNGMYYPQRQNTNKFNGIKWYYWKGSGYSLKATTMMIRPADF

The experiment concerns the target integrin αVβ3 expressed on transfected CHO cells (UniProt P06756). Nature of the experiment: flow cytometry, FLAG-Ang2 on integrin-transfected CHO cells, anti-FLAG-R-phycoerythrin. On the technique in general: Flow cytometry measures light scatter and fluorescence of single cells or particles in a stream.

Results are given in words; binding and its absence hold for the method and conditions named. Some results given as binding are weak or reduced against the parent protein; the word gives no strength.

Consider “Ang2 protein having FLAG sequences tagged at its N-terminal (FLAG-Ang2), wild type (from UniProt O15123 19-496) (ligand)”, for which the binding entry is listed as “binds”.
